Assay results: publication PMC7049685, “The C-terminal tail of the yeast mitochondrial transcription factor Mtf1 coordinates template strand alignment, DNA scrunching and timely transition into elongation” (Nucleic Acids Research, 2020)
No constants are given. Whether binding was seen depends on the method and setting. Binding can be weak; no strength is given.

B1: Mitochondrial Transcription Factor 1 (Mtf1), wild type (protein, UniProt P14908 2-341)
chain: SVPIPGIKDISKLKFFYGFKYLWNPTVYNKIFDKLDLTKTYKHPEELKVLDLYPGVGIQSAIFYNKYCPRQYSLLEKRSSLYKFLNAKFEGSPLQILKRDPYDWSTYSNLIDEERIFVPEVQSSDHINDKFLTVANVTGEGSEGLIMQWLSCIGNKNWLYRFGKVKMLLWMPSTTARKLLARPGMHSRSKCSVVREAFTDTKLIAISDANELKGFDSQCIEEWDPILFSAAEIWPTKGKPIALVEMDPIDFDFDVDNWDYVTRHLMILKRTPLNTVMDSLGHGGQQYFNSRITDKDLLKKCPIDLTNDEFIYLTKLFMEWPFKPDILMDFVDMYQTEHSG
B2: Mtf1 C-tail deletion mutant lacking 16 aa from the C-terminus (domain or fragment, UniProt P14908 1-325)
chain: MSVPIPGIKDISKLKFFYGFKYLWNPTVYNKIFDKLDLTKTYKHPEELKVLDLYPGVGIQSAIFYNKYCPRQYSLLEKRSSLYKFLNAKFEGSPLQILKRDPYDWSTYSNLIDEERIFVPEVQSSDHINDKFLTVANVTGEGSEGLIMQWLSCIGNKNWLYRFGKVKMLLWMPSTTARKLLARPGMHSRSKCSVVREAFTDTKLIAISDANELKGFDSQCIEEWDPILFSAAEIWPTKGKPIALVEMDPIDFDFDVDNWDYVTRHLMILKRTPLNTVMDSLGHGGQQYFNSRITDKDLLKKCPIDLTNDEFIYLTKLFMEWPFKP
B3: Mtf1 C-tail deletion mutant lacking 20 aa from the C-terminus (domain or fragment, UniProt P14908 1-321)
chain: MSVPIPGIKDISKLKFFYGFKYLWNPTVYNKIFDKLDLTKTYKHPEELKVLDLYPGVGIQSAIFYNKYCPRQYSLLEKRSSLYKFLNAKFEGSPLQILKRDPYDWSTYSNLIDEERIFVPEVQSSDHINDKFLTVANVTGEGSEGLIMQWLSCIGNKNWLYRFGKVKMLLWMPSTTARKLLARPGMHSRSKCSVVREAFTDTKLIAISDANELKGFDSQCIEEWDPILFSAAEIWPTKGKPIALVEMDPIDFDFDVDNWDYVTRHLMILKRTPLNTVMDSLGHGGQQYFNSRITDKDLLKKCPIDLTNDEFIYLTKLFMEW
B4: Mtf1 C-tail deletion mutant lacking 12 aa from the C-terminus (domain or fragment, UniProt P14908 1-329)
chain: MSVPIPGIKDISKLKFFYGFKYLWNPTVYNKIFDKLDLTKTYKHPEELKVLDLYPGVGIQSAIFYNKYCPRQYSLLEKRSSLYKFLNAKFEGSPLQILKRDPYDWSTYSNLIDEERIFVPEVQSSDHINDKFLTVANVTGEGSEGLIMQWLSCIGNKNWLYRFGKVKMLLWMPSTTARKLLARPGMHSRSKCSVVREAFTDTKLIAISDANELKGFDSQCIEEWDPILFSAAEIWPTKGKPIALVEMDPIDFDFDVDNWDYVTRHLMILKRTPLNTVMDSLGHGGQQYFNSRITDKDLLKKCPIDLTNDEFIYLTKLFMEWPFKPDILM
B5: Mtf1 C-tail deletion mutant lacking 4 aa from the C-terminus (domain or fragment, UniProt P14908 1-337)
chain: MSVPIPGIKDISKLKFFYGFKYLWNPTVYNKIFDKLDLTKTYKHPEELKVLDLYPGVGIQSAIFYNKYCPRQYSLLEKRSSLYKFLNAKFEGSPLQILKRDPYDWSTYSNLIDEERIFVPEVQSSDHINDKFLTVANVTGEGSEGLIMQWLSCIGNKNWLYRFGKVKMLLWMPSTTARKLLARPGMHSRSKCSVVREAFTDTKLIAISDANELKGFDSQCIEEWDPILFSAAEIWPTKGKPIALVEMDPIDFDFDVDNWDYVTRHLMILKRTPLNTVMDSLGHGGQQYFNSRITDKDLLKKCPIDLTNDEFIYLTKLFMEWPFKPDILMDFVDMYQT

Target: yeast mitochondrial RNA polymerase Rpo41 (S. cerevisiae)
Experiment: fluorescence polarisation; fluorescence anisotropy: TAMRA-labelled promoter DNA (5 nM) titrated with Rpo41 and Mtf1 at 1:1.2; 25°C; 50 mM Tris-acetate pH 7.5, 100 mM potassium glutamate, 10 mM magnesium acetate, 0.01% Tween-20; reads the ternary Rpo41-Mtf1-promoter DNA complex; both purified

binding | Binder
binds | B1
binds | B2
binds | B3
binds | B4
binds | B5
